Assay results published in the supplement of paper PMC6411743.
± gives the standard deviation of the averaged measurements. The list shows a part of the results, in another mix than the full data.

Key:
Experiment in all cases: NP40-soluble protein abundance relative to vehicle (solubility fold change) (ratio); higher = more soluble protein in presence of ATP
NT5C3B = molecular target: T1, NT5C3B (UniProt Q969T7)
T1 sequence (whole entry): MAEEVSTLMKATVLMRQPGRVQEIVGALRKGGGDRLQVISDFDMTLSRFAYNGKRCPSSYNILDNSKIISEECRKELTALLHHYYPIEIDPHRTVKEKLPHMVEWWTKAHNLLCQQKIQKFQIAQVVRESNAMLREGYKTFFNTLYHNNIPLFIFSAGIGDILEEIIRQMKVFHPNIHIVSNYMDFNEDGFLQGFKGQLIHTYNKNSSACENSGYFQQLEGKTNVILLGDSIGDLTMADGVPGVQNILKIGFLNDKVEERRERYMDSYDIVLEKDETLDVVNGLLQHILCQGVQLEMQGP
In short: (§1)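 Crude Jurkat lysate, prepared by Dounce homogenisation, was exposed to eight concentrations from 0.1 to 10 mM for 10 min at room temperature and then 3 min at 37 °C. Solubilisation used 0.8% NP40 with benzonase for 60 min at 4 °C, followed by ultracentrifugation and TMT labelling of the supernatant for LC-MS/MS. After vsn normalisation of intensities, each value is the fold change against the detergent-processed vehicle within each replicate, across three independent experiments.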

NUDT8 = molecular target: T2, NUDT8 (UniProt Q8WV74)
T2 sequence (whole entry): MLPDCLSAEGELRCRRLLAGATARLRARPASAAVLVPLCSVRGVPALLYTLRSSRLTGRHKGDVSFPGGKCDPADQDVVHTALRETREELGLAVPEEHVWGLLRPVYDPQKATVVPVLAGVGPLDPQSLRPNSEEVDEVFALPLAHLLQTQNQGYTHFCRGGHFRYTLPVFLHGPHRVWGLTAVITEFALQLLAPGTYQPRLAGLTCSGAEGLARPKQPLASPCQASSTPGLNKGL
In short: as §1

PIBF1 = molecular target: T3, PIBF1 (UniProt Q8WXW3)
T3 sequence (whole entry): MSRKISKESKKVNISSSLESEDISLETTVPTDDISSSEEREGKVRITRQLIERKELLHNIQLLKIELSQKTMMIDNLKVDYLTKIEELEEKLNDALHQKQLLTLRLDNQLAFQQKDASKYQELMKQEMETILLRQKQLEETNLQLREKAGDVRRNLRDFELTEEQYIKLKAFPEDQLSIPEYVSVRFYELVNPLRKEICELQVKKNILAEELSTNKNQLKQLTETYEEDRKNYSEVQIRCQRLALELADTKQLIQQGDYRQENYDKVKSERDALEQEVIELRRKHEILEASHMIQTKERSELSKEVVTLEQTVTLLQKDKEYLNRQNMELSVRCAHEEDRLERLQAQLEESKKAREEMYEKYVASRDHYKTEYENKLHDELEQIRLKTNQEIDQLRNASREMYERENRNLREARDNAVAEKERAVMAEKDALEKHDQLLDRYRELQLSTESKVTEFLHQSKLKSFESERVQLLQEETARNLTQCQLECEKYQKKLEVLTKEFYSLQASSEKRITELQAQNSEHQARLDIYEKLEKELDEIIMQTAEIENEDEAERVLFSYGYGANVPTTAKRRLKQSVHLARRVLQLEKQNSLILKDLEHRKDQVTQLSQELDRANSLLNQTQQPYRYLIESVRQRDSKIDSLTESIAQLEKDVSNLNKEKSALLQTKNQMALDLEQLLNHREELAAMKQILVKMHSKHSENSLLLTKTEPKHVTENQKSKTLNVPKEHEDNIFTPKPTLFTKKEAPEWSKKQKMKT
In short: as §1

RNF166 = molecular target: T4, RNF166 (UniProt Q96A37)
T4 sequence (whole entry): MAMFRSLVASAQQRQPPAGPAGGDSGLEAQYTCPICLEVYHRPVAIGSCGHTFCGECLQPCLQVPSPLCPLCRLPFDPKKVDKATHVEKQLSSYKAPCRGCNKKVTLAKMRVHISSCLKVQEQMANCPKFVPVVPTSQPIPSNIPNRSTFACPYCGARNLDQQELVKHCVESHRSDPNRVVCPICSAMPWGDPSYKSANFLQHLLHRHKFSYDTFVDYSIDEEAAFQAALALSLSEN
In short: as §1

RNF25 = molecular target: T5, RNF25 (UniProt Q96BH1)
T5 sequence (whole entry): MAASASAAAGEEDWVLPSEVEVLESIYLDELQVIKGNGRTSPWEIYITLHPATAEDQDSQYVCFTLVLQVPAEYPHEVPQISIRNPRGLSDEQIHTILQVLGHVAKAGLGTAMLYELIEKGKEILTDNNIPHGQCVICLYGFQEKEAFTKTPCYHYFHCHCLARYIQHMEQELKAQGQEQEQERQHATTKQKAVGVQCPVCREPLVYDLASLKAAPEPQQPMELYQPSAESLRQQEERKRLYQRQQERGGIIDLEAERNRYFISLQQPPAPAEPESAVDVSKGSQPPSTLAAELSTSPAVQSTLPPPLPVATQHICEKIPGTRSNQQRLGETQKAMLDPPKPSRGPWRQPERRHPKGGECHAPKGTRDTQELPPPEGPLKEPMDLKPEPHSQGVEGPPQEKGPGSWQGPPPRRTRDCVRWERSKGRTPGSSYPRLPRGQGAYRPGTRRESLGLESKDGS
In short: as §1

SECISBP2L = molecular target: T6, SECISBP2L (UniProt Q93073)
T6 sequence (whole entry): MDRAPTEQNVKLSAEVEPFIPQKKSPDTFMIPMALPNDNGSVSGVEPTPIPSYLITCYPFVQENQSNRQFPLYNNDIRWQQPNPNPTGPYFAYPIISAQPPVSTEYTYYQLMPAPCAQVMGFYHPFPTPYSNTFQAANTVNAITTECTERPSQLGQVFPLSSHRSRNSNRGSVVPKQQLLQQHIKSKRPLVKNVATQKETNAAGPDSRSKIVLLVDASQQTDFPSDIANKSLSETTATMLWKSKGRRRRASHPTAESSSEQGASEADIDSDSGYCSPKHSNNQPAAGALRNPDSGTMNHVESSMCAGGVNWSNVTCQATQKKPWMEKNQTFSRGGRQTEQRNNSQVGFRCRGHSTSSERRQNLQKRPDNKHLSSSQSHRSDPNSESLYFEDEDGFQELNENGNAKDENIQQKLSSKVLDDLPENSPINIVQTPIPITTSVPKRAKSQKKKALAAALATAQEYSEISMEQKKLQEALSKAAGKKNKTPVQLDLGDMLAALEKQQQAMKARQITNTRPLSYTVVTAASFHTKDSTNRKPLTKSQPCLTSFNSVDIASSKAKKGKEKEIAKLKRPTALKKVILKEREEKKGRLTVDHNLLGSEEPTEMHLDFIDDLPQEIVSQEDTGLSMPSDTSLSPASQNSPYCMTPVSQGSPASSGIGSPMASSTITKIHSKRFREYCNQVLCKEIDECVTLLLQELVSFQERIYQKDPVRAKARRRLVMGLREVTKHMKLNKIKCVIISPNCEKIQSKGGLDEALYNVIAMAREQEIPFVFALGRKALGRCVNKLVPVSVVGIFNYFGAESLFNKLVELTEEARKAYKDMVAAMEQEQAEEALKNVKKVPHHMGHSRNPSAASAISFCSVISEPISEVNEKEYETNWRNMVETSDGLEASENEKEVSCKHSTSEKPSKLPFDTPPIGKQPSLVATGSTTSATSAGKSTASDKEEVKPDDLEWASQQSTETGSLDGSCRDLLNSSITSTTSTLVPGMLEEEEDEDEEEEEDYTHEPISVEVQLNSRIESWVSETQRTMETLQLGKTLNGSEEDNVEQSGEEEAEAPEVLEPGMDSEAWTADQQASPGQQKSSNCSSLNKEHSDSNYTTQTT
In short: as §1

## Nc1ncnc2c1ncn2[C@@H]1O[C@H](COP(=O)(O)OP(=O)(O)OP(=O)(O)O)[C@@H](O)[C@H]1O [adenosine triphosphate]
NT5C3B; concentration: 6mM
  NP40-soluble protein abundance: 0.936 ± 0.036
NT5C3B; concentration: 8mM
  NP40-soluble protein abundance: 0.96 ± 0.024
NT5C3B; concentration: 10mM
  NP40-soluble protein abundance: 0.957 ± 0.016
NUDT8; concentration: 1mM
  NP40-soluble protein abundance: 0.983 ± 0.073
NUDT8; concentration: 2mM
  NP40-soluble protein abundance: 0.965 ± 0.047
NUDT8; concentration: 4mM
  NP40-soluble protein abundance: 0.983 ± 0.037
NUDT8; concentration: 6mM
  NP40-soluble protein abundance: 0.921 ± 0.071
NUDT8; concentration: 8mM
  NP40-soluble protein abundance: 1 ± 0.019
NUDT8; concentration: 10mM
  NP40-soluble protein abundance: 0.938 ± 0.053
PIBF1; concentration: 1mM
  NP40-soluble protein abundance: 1.02 ± 0.05
PIBF1; concentration: 2mM
  NP40-soluble protein abundance: 1.07 ± 0.11
PIBF1; concentration: 4mM
  NP40-soluble protein abundance: 1.07 ± 0.033
PIBF1; concentration: 6mM
  NP40-soluble protein abundance: 1.02 ± 0.042
PIBF1; concentration: 8mM
  NP40-soluble protein abundance: 1.04 ± 0.074
PIBF1; concentration: 10mM
  NP40-soluble protein abundance: 1.01 ± 0.027
RNF166; concentration: 1mM
  NP40-soluble protein abundance: 0.825 ± 0.053
RNF166; concentration: 2mM
  NP40-soluble protein abundance: 0.922 ± 0.024
RNF166; concentration: 4mM
  NP40-soluble protein abundance: 0.887 ± 0.088
RNF166; concentration: 6mM
  NP40-soluble protein abundance: 0.962 ± 0.1
RNF166; concentration: 8mM
  NP40-soluble protein abundance: 0.907 ± 0.054
RNF166; concentration: 10mM
  NP40-soluble protein abundance: 0.927 ± 0.062
RNF25; concentration: 1mM
  NP40-soluble protein abundance: 0.989 ± 0.084
RNF25; concentration: 2mM
  NP40-soluble protein abundance: 0.954 ± 0.11
RNF25; concentration: 4mM
  NP40-soluble protein abundance: 0.956 ± 0.082
RNF25; concentration: 6mM
  NP40-soluble protein abundance: 0.935 ± 0.055
RNF25; concentration: 8mM
  NP40-soluble protein abundance: 0.89 ± 0.092
RNF25; concentration: 10mM
  NP40-soluble protein abundance: 0.882 ± 0.086
SECISBP2L; concentration: 1mM
  NP40-soluble protein abundance: 0.914 ± 0.075
SECISBP2L; concentration: 2mM
  NP40-soluble protein abundance: 0.946 ± 0.1
SECISBP2L; concentration: 4mM
  NP40-soluble protein abundance: 1.03 ± 0.11
SECISBP2L; concentration: 6mM
  NP40-soluble protein abundance: 0.974 ± 0.2
SECISBP2L; concentration: 8mM
  NP40-soluble protein abundance: 0.964 ± 0.1
SECISBP2L; concentration: 10mM
  NP40-soluble protein abundance: 1 ± 0.093
